Assay results as given in publication PMC10362617.
No constants are given. Whether binding was seen depends on the method and setting. In cells and extracts the contact can be indirect. Some results given as binding are weak or reduced against the parent protein; the word gives no strength.

Sequences of proteins named here, by UniProt entry; tags and fusion partners are left off.
UniProt Q969L2: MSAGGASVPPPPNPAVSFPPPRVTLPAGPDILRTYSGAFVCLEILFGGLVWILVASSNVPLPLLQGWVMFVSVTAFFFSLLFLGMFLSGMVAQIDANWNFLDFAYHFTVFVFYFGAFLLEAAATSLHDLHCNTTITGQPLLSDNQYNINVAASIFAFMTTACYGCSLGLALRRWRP
UniProt P35222: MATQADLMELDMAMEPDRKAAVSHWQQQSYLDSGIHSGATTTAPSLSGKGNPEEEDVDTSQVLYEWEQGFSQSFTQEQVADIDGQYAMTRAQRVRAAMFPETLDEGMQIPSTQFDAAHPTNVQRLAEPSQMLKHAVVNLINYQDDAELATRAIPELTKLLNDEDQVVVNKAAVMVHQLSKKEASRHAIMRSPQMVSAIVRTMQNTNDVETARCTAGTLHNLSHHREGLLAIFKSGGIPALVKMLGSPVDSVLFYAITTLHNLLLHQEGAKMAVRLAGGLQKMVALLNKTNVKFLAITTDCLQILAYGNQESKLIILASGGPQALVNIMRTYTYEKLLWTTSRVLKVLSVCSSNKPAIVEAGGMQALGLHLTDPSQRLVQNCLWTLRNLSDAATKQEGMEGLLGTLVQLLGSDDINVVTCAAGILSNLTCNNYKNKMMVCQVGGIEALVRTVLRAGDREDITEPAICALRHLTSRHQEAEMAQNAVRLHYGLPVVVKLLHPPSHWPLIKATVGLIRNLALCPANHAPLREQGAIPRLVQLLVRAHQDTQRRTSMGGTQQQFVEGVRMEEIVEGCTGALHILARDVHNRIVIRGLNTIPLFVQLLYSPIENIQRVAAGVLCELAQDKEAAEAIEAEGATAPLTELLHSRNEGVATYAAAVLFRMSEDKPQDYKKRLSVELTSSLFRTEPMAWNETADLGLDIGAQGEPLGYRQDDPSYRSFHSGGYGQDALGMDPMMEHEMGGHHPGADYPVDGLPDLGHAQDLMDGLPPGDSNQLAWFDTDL

Target: Myelin and lymphocyte protein 2 (MAL2) (human (endogenous in MDA-MB-231)) (UniProt Q969L2)
Experiment: co-IP; endogenous proteins in MDA-MB-231 whole cell lysates; MAL2 antibody, β-catenin antibody or IgG on beads (DIA IP/CoIP Kit), incubated at 4 °C for more than 8 h, washed with PBST five times, western blot

binding: binds
Substance: β-catenin (from UniProt P35222 1-781)
